Results are given in words; binding and its absence hold for the method and conditions named. Binding seen in cells or lysates may run through a third protein. Some entries that bind do so weakly or less than the wild type.
Key:
Test in all cases: co-IP; Flag-Neu1 co-expressed with full-length HA-Sirt1 or truncated mutants of SIRT1 in 293T cells; Co-IP with anti-HA antibody
[1] = molecular target: HA-Sirt1 truncated mutant aa 1-235 (UniProt Q96EB6)
[2] = molecular target: HA-Sirt1 truncated mutant aa 236-496 (UniProt Q96EB6)
[3] = molecular target: HA-Sirt1 truncated mutant aa 497-747 (UniProt Q96EB6)

Sequences of proteins named here, by UniProt entry; tags and fusion partners are left off. A change or cut given only in a name is not applied to a line headed by its entry. Residues count along the entry.
HA-Sirt1 truncated mutant aa 1-235 (Q96EB6, residues 1-235): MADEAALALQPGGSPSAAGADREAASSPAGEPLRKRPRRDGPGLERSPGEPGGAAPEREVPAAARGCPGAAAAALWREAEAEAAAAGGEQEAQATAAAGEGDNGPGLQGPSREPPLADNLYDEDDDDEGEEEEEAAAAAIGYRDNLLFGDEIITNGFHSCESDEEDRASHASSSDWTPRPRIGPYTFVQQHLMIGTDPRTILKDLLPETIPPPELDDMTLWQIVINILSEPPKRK
HA-Sirt1 truncated mutant aa 236-496 (Q96EB6, residues 236-496): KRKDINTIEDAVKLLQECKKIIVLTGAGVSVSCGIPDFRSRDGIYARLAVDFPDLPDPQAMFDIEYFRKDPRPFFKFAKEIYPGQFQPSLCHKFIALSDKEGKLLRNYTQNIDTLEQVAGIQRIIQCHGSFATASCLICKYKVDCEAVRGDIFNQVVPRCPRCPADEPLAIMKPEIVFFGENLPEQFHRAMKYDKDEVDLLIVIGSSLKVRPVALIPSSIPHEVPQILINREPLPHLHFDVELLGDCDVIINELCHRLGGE
HA-Sirt1 truncated mutant aa 497-747 (Q96EB6, residues 497-747): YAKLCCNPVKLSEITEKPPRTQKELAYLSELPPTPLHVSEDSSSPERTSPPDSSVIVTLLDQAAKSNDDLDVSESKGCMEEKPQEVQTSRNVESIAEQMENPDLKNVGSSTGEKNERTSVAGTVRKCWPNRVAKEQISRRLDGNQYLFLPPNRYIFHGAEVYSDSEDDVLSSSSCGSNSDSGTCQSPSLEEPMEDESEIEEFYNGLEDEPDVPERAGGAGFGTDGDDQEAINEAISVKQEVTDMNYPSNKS

Measured: binding

Full-length Flag-Neu1 (from UniProt Q99519 48-415)
binds: [1] | [2] | [3]

From PMC12224949
